Laboratory results reported in paper PMC6608618, “Structures of three ependymin-related proteins suggest their function as a hydrophobic molecule binder” (IUCrJ, 2019).
Read-outs that look alike come from different tables or passages of the source. These are yes or no findings as the source states them, for the method shown. Binding seen in cells or lysates may run through a third protein. Here binding means that the protein was enriched with, or labelled near, the bait; the list need not be complete. Where a sequence is shown, tags or fusion partners need not be part of it.

Sequences of proteins named here, by UniProt entry; tags and fusion partners are left off. Residues count along the entry.
UniProt P11717, residues 41-2491: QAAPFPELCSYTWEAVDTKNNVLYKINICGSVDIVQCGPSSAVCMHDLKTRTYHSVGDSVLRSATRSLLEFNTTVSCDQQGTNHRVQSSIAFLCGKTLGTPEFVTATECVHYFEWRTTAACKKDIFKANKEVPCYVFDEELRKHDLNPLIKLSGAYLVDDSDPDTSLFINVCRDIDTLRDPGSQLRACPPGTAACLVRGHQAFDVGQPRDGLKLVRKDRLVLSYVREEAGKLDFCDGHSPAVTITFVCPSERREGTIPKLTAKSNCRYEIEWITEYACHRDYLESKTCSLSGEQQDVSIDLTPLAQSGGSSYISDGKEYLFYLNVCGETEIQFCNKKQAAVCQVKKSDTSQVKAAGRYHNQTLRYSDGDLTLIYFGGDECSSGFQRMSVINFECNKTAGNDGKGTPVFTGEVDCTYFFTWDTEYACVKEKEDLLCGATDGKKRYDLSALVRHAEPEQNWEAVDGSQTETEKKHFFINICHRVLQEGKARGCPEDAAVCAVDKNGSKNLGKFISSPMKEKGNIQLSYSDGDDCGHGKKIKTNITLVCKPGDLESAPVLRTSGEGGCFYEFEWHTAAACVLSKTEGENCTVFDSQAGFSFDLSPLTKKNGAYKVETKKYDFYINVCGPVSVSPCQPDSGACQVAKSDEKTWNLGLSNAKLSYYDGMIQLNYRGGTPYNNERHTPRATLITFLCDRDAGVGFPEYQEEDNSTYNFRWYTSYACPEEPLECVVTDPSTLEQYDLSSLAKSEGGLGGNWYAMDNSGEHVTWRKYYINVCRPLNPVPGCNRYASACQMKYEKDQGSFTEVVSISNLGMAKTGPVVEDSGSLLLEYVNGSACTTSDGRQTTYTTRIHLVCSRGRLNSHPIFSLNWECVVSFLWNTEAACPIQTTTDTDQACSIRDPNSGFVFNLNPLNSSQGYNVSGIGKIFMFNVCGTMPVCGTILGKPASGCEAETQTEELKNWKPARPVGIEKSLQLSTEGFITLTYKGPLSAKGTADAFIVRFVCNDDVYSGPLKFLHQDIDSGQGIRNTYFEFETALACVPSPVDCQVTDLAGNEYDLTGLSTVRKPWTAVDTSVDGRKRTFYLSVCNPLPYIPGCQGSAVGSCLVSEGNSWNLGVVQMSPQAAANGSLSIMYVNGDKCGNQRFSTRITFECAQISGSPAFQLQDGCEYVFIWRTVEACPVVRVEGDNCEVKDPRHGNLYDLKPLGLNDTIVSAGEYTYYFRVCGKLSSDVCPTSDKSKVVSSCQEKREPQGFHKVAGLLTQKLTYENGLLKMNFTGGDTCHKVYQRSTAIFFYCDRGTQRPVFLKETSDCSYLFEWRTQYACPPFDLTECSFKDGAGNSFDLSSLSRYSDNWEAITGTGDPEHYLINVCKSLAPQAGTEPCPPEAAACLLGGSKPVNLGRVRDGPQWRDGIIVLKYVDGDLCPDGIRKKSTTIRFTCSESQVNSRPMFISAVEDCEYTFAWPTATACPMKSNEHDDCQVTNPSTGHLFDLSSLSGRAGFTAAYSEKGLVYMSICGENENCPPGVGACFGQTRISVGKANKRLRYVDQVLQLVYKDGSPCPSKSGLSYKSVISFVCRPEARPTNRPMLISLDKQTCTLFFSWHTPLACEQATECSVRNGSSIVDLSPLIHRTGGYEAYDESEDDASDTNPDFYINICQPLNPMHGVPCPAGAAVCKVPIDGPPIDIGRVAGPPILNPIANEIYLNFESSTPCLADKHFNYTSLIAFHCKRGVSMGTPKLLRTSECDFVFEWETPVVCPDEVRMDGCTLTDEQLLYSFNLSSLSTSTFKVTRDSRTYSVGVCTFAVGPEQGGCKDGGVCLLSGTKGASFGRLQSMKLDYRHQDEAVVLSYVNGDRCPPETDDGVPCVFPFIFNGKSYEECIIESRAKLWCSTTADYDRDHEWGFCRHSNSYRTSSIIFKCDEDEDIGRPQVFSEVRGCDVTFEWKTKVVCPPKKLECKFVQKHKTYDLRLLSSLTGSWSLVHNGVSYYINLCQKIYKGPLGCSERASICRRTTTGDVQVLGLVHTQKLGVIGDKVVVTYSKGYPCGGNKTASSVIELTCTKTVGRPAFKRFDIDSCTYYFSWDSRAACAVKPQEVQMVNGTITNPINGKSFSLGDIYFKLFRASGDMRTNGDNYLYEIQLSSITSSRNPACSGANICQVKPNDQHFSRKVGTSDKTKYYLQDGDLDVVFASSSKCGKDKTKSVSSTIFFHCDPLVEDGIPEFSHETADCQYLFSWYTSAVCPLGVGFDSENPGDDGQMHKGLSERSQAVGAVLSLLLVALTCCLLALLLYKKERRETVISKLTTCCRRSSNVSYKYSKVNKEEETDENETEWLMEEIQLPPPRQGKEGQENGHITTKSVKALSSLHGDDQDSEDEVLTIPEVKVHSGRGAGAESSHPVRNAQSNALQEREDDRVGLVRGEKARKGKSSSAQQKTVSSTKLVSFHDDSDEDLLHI

T1: EPDR1^FLAG (full-length human EPDR1 1-224 with C-terminal GGGGS linker and FLAG tag) (human) (UniProt Q9UM22)
T1 sequence: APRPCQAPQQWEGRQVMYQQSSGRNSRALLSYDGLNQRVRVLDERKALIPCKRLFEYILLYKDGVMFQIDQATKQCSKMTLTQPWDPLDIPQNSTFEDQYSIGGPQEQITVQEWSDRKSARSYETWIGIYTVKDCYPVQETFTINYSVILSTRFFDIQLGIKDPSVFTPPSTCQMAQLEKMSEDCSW


How the values were obtained:
[1] = target: T1, EPDR1^FLAG (full-length human EPDR1 1-224 with C-terminal GGGGS linker and FLAG tag) (human); assay: affinity purification with mass spectrometry; EPDR1^FLAG from culture medium pre-bound to anti-FLAG M2 agarose beads, incubated 1 h at 4 C with lysate of untransfected U-87MG cells (50 mM HEPES pH 7.5, 150 mM NaCl, 1% n-dodecyl beta-D-maltoside); control: medium of cells with empty vector; LC-MS/MS, MaxLFQ
[2] = target: T1, EPDR1^FLAG (full-length human EPDR1 1-224 with C-terminal GGGGS linker and FLAG tag) (human); assay: as above; remark: listed apart in the source

| Molecule | binding [1] | binding [2] |
| --- | --- | --- |
| insulin-like growth factor 2 receptor (from UniProt P11717 41-2491) | binds |  |
| flotillin-1 (protein, UniProt O75955 1-427) MFFTCGPNEAMVVSGFCRSPPVMVAGGRVFVLPCIQQIQRISLNTLTLNVKSEKVYTRHGVPISVTGIAQVKIQGQNKEMLAAACQMFLGKTEAEIAHIALETLEGHQRAIMAHMTVEEIYKDRQKFSEQVFKVASSDLVNMGISVVSYTLKDIHDDQDYLHSLGKARTAQVQKDARIGEAEAKRDAGIREAKAKQEKVSAQYLSEIEMAKAQRDYELKKAAYDIEVNTRRAQADLAYQLQVAKTKQQIEEQRVQVQVVERAQQVAVQEQEIARREKELEARVRKPAEAERYKLERLAEAEKSQLIMQAEAEAASVRMRGEAEAFAIGARARAEAEQMAKKAEAFQLYQEAAQLDMLLEKLPQVAEEISGPLTSANKITLVSSGSGTMGAAKVTGEVLDILTRLPESVERLTGVSISQVNHKPLRTA |  | binds |
| flotillin-2 (protein, UniProt Q14254 1-428) MGNCHTVGPNEALVVSGGCCGSDYKQYVFGGWAWAWWCISDTQRISLEIMTLQPRCEDVETAEGVALTVTGVAQVKIMTEKELLAVACEQFLGKNVQDIKNVVLQTLEGHLRSILGTLTVEQIYQDRDQFAKLVREVAAPDVGRMGIEILSFTIKDVYDKVDYLSSLGKTQTAVVQRDADIGVAEAERDAGIREAECKKEMLDVKFMADTKIADSKRAFELQKSAFSEEVNIKTAEAQLAYELQGAREQQKIRQEEIEIEVVQRKKQIAVEAQEILRTDKELIATVRRPAEAEAHRIQQIAEGEKVKQVLLAQAEAEKIRKIGEAEAAVIEAMGKAEAERMKLKAEAYQKYGDAAKMALVLEALPQIAAKIAAPLTKVDEIVVLSGDNSKVTSEVNRLLAELPASVHALTGVDLSKIPLIKKATGVQV |  | binds |
